Measurements as given in patent US4379165A, “Anti-convulsant” (priority 1981, dated 1983).
“And” between values parts separate entries of the source, which are not always exact repeats. Identical values can stand only once. Like-named read-outs stand apart in the source and are kept apart here.

What was measured:
[1] = system: maximal electroshock seizures; test: maximal electroshock seizure (MES) pattern test, mice
[2] = system: ability to maintain balance on a rotating rod; test: Rotorod Toxicity Test, rats; assay type: in vivo; conditions: rats (Table 7; title of Table 5 prints Mice); oral
[3] = system: subcutaneous picrotoxin seizure threshold; conditions: mice; intraperitoneal
[4] = system: ability to maintain balance on a rotating rod; conditions: mice
[5] = system: righting reflex; test: hypnosis (loss of righting reflex), HD50; conditions: mice; intraperitoneal
[6] = system: subcutaneous metrazol seizure threshold; test: subcutaneous Metrazol Seizure Threshold Test (sc Met), mice
[7] = system: maximal electroshock seizures; test: maximal electroshock seizure (MES) pattern test, rats; conditions: rats (Table 7; title of Table 5 prints Mice); oral
[8] = system: subcutaneous bicuculline seizure threshold; test: subcutaneous Bicuculline Seizure Threshold Test (sc Bic); conditions: mice; intraperitoneal
[9] = system: subcutaneous strychnine seizure pattern; conditions: mice; intraperitoneal

SMILES	Slope, regression line, MES ([1]; intraperitoneal)	Slope, regression line, MES ([1]; oral)	Slope, regression line, Rotorod [2]	Slope, regression line, Picrotoxin [3]	Slope, regression line, Rotorod ([4]; intraperitoneal)	Slope, regression line, Rotorod ([4]; oral)	Slope, regression line, HD50 (righting reflex) [5]	Slope, regression line, sc Met ([6]; intraperitoneal)	Slope, regression line, MES [7]	Slope, regression line, Bicuculline [8]	Slope, regression line, sc Met ([6]; oral)	Slope, regression line, Strychnine [9]
CC(NC(=O)c1ccc(N)cc1)c1ccccc1 (stereo not drawn) [4-amino-N-(alpha-methylbenzyl)-benzamide]	6.02	24.79	5.66	1.73	15.32	9.09	20.85	13.67	19.24	2.38		
NC(=O)N1c2ccccc2C=Cc2ccccc21 [Carbamazepine]	3.62	9.07	6.06	3.86	4.77	3.47	5.92		4.50		5.50	2.85
CCC1(c2ccccc2)NC(=O)N(C)C1=O (stereo not shown) [Mephenytoin]	8.01	28.81	13.47	7.43	9.22	6.58	17.00	4.76	3.60	1.99	3.60	
CCC1(c2ccccc2)C(=O)NC(=O)NC1=O [Phenobarbital]			3.00	4.79	24.67	8.51	8.41	5.93	4.12	4.07		18.51
O=C1NC(=O)C(c2ccccc2)(c2ccccc2)N1 [Phenytoin]	13.66 and 13.67	6.28			15.23	13.01	14.03		2.82			
